Data as given in article PMC8464597.
No constants are given. Whether binding was seen depends on the method and setting. In cells and extracts the contact can be indirect. Some results given as binding are weak or reduced against the parent protein; the word gives no strength.

By UniProt entry, the sequences of proteins in these tests, tags left out. Where a name states a change or a piece, a line headed by the entry shows the natural chain unless it says otherwise.
UniProt Q9NPD8: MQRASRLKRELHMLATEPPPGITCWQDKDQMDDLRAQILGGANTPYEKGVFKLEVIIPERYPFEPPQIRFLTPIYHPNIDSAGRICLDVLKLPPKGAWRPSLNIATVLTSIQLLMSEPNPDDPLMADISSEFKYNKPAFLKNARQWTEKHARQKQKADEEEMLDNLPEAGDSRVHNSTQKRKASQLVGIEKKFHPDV

Molecular target: ubiquitin-conjugating enzyme E2T (UBE2T) (human (endogenous in AGS)) (UniProt Q9NPD8)
Test: co-IP; total protein of AGS cells (RIPA lysis buffer) immunoprecipitated with anti-UBE2T antibody; UBE2T and CHPF detected by western blot

B1: Chondroitin polymerizing factor (CHPF) (protein, UniProt Q8IZ52 1-775)
chain: MRASLLLSVLRPAGPVAVGISLGFTLSLLSVTWVEEPCGPGPPQPGDSELPPRGNTNAARRPNSVQPGAEREKPGAGEGAGENWEPRVLPYHPAQPGQAAKKAVRTRYISTELGIRQRLLVAVLTSQTTLPTLGVAVNRTLGHRLERVVFLTGARGRRAPPGMAVVTLGEERPIGHLHLALRHLLEQHGDDFDWFFLVPDTTYTEAHGLARLTGHLSLASAAHLYLGRPQDFIGGEPTPGRYCHGGFGVLLSRMLLQQLRPHLEGCRNDIVSARPDEWLGRCILDATGVGCTGDHEGVHYSHLELSPGEPVQEGDPHFRSALTAHPVRDPVHMYQLHKAFARAELERTYQEIQELQWEIQNTSHLAVDGDQAAAWPVGIPAPSRPASRFEVLRWDYFTEQHAFSCADGSPRCPLRGADRADVADVLGTALEELNRRYHPALRLQKQQLVNGYRRFDPARGMEYTLDLQLEALTPQGGRRPLTRRVQLLRPLSRVEILPVPYVTEASRLTVLLPLAAAERDLAPGFLEAFATAALEPGDAAAALTLLLLYEPRQAQRVAHADVFAPVKAHVAELERRFPGARVPWLSVQTAAPSPLRLMDLLSKKHPLDTLFLLAGPDTVLTPDFLNRCRMHAISGWQAFFPMHFQAFHPAVAPPQGPGPPELGRDTGRFDRQAASEACFYNSDYVAARGRLAAASEQEEELLESLDVYELFLHFSSLHVLRAVEPALLQRYRAQTCSARLSEDLYHRCLQSVLEGLGSRTQLAMLLFEQEQGNST
- binding: binds
